Substitutions are numbered along the chain they refer to. No constants are given. Whether binding was seen depends on the method and setting. Some binding calls cover weakened binding; strength is not graded here. Blank lines part the entries; values can stand above or below the binder they belong to.
Experiments:
[1] = target: Human CD22 extracellular segment conjugated His label (human) (UniProt P20273); assay: ELISA, h CD22-His coated at 2 µg/ml, antibody in 3-fold dilutions
[2] = target: CD22 on B cells of PBMC from volunteers (human) (UniProt P20273); assay: flow cytometry on PBMC from volunteers, antibody 10 µg/ml, Goat anti Mouse IgG-PE, anti-hCD19-APC counterstain

The chains behind the UniProt entries cited, without tags or fusion partners. Where a name states a change or a piece, a line headed by the entry shows the natural chain unless it says otherwise. Residues count along the entry.
UniProt P20273: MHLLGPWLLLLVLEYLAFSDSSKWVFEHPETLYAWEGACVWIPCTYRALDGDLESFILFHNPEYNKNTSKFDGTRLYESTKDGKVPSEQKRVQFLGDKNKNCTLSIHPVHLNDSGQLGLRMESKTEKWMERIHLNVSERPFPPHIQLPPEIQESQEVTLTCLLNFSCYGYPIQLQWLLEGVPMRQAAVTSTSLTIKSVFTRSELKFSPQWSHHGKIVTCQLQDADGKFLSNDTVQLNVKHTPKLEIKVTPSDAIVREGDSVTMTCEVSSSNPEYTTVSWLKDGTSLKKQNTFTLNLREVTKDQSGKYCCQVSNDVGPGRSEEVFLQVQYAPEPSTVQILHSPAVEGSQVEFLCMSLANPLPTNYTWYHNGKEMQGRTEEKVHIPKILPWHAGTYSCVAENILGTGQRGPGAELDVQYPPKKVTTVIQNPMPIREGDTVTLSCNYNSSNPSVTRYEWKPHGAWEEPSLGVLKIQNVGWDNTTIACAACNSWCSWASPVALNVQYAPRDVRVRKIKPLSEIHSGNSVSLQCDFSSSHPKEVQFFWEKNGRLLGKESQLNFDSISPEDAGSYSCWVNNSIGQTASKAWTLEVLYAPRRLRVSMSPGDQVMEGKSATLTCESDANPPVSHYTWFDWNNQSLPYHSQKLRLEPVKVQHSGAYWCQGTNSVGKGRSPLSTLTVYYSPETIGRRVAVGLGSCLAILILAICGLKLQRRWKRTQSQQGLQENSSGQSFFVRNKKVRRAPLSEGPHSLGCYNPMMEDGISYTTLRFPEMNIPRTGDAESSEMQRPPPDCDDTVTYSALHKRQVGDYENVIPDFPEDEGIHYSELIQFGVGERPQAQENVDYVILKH
CD22 on B cells of PBMC from volunteers: residues 20-847 of P20273
Human CD22 extracellular segment conjugated His label: residues 20-687 of P20273

binding [1]: binds | binding [2]: binds
B1: CD22 antibody FC2-203 (antibody, IgG1, V domains shown)
VH: QVQLQQPGAELVRPGASVKLSCKASGYTFSSYWINWVKQRPGQGLEWIGNIYPSDSYTNYNQKFKDKATLTVDKSSSTAYMQLSSPTSEDSAVYYCTREGHYYGSFGAMDYWGQGTSVTVSS
VL: DVQITQSPSYLAASPGETITINCRASKTISKYLAWYQEKPGKTNKLLIYSGSTLQSGIPSRFSGSGSGTDFTLTISSLEPEDFAMYYCQQHNEYPWTFGGGTKLEIKR

binding [2]: binds
B2: CD22 antibody FC2-201 (antibody, IgG2b, V domains shown)
VH: KVQLQQSGAGLVKPGASVKLSCKASGYTFTDSILHWLMQRSGQGLEWIGWFYPGSGSIKYNEKFKDKATLTADKSSSTVYMELSRLTSEDSAFYFCARHEDGYDGFAYWGQGTLVTVSA
VL: ENVLTQSPAIMSASLGEKVTMSCRASSSVNYIFWYQQKSDASPKLWIYYTSNLAPGVPARFSGSGSGNSYSLTISSMEGEDAATYYCQQFTSSPFTFGSGTKLEIKR

binding [1]: binds | binding [2]: binds
B3: CD22 antibody FC2-070 (antibody, IgG2b, V domains shown)
VH: QVQLQQPGAELVKPGTSVKLSCKASGYNFTSYWINWVKLRPGQGLEWIGDIYPGSGNTNYNEKFKSKATLTVDTSSTTAYMQLSSLASEDSALYYCARRGYLDYWGQGTTLTVSS
VL: DIQMTQSPASLSASVGETVTITCRASGNIHNYLAWYQQKQGKSPQLLVYNAKTLADGVPSRFSGSGSGTQYSLTINSLQPEDFGSYYCQHFWSTPLTFGAGTKLELKR

binding [2]: binds
B4: CD22 antibody FC2-117 (antibody, IgG1, V domains shown)
VH: DVQLQESGPGLVKPSQSLSLTCSVTGYSITSGYYWNWIRQFPGNKLEWMGYISYDGSNNYNPSLKNRISITRDTSKNQFFLKLNSVTTEDTATYYCTKGGYGYYFDYWGQGTTLTVSS
VL: B3 VL with T74K, L96P, A100G, L106I

binding [1]: binds | binding [2]: binds
B5: CD22 antibody FC2-153 (antibody, IgG1, V domains shown)
VH: QVQLQQSGAELMKPGASVKISCKATGYTFSSYWIEWVKQRPGHGLEWIGEILPGSGSTNYNEKFKGKATFTADTSSNTAYMQLSSLTSEDSAVYYCARWGQLGLFYAMDYWGQGTSVTVSS
VL: B3 VL with G27E, H30Y, N31S, D56E, Y71F, T74K, F91H, W92Y, S93G, T94S

— patent publication US20230331840A1
